From the supplement of paper PMC5949888
Most values lie at the floor of the assay. Slopes are relative: functional sequences can read slightly below zero.

Tested on: Saccharomyces cerevisiae PS128 hsf1 delta, HSF1(1-493) fusion
Test: growth estimate (transactivation domain function in HSF1 fusion, heat-shock survival) (a.u. (slope of normalised read count over time)); higher = stronger growth at 37°C, i.e. more transactivation activity
Conditions: library: random library

Substance	growth estimate
EARCTPRRKTVGGVRP	< -0.25
SISRGFSAITLLNRRPARTR	< -0.25
MYQRSLMSLCKVCVQGGQPC	< -0.25
RTQFHASYEVLVGVVKDHGQ	< -0.25
FLGSGAEHSLTGPTILMD	< -0.25
LSCHACR	< -0.25
GTTGGLMGRAWDAVWRGCCG	< -0.25
QGYYHVRGHPGRARGKTISG	< -0.25
SDP	< -0.25
WWIVIRYRHNWSHLQVTSKV	< -0.25
GWPDVR	< -0.25
DFLTGFCRSA	< -0.25
LVGKEVGRRAGLLDWLPIRA	< -0.25
TRLCFVTRVSAGRSPSPGAI	< -0.25
QFPTRSVSERLALTLWLYRA	< -0.25
VVVPRPEGGGLLSSYYF	< -0.25
DVP	< -0.25
RVGNGGIRDALIISWYMAYK	< -0.25
KGKQHWLMD	< -0.25
GEWALLESL	-0.226
GGCLVAGSSYISSASNHGRT	< -0.25
SLYIGVAVESR	< -0.25
TGEGCDSHIPDRDPRDRFLT	-0.203
SIETNRLSRAFFRGTGKMLQ	< -0.25
LDGHETSVTSVVWSADPGII	< -0.25

2 entries picked at random from those above, as already listed:
Substance	growth estimate
DFLTGFCRSA	< -0.25
QGYYHVRGHPGRARGKTISG	< -0.25

Next part:

Substance	growth estimate
HESSRPRHFVFQVYLHLKAF	< -0.25
QLP	< -0.25
RVLVQRGVKLNFIVFGMHGT	< -0.25
RFPLYSEVLCGWKFPSQC	< -0.25
LESYVYPVGTAWLCRTYRTH	0.109
RFMDPLAPSE	< -0.25
PRSGPY	< -0.25
GRHPVRGVCLDYSLL	< -0.25
TMCLPNEVWPTILNKPLRVS	< -0.25
VSSSPVGQSVVIVSPKGGSQ	< -0.25
LTNS	< -0.25
LFRGGIVARRMPLRDAAIHI	< -0.25
VIAGNGIYPV	< -0.25
KISVSCVYVGTKVGCLVSFQ	< -0.25
PDRNTLG	< -0.25
GRSEYTYSLGHLC	< -0.25
LHPAV	< -0.25
IPSS	< -0.25
FLETMGYD	< -0.25
IIVEIIRAGRGSETHARDTT	-0.25
VWCSSETDSTCPCAVRYLQG	< -0.25
RGRSFLKHTILR	< -0.25
SFRTNLDTQYSNCCSRVP	< -0.25
VGLETQRPNLVRACCRVLHR	< -0.25
RIRDI	< -0.25

Substance	growth estimate
MWLGRERALPEASQSA	< -0.25
CFVIPIGYFHGQI	< -0.25
DAFLDTSTECWNPNGNKLGG	< -0.25
APVQGGNGHVTLP	< -0.25
LPSTRK	< -0.25
AAAHLTVPTSSYLTRRLAGS	< -0.25
KPEGTFEQGKHLDEDSSAGS	< -0.25
YGSVTIVVPHDSGYTPCSNG	< -0.25
GVRLLFAYASGPRWTFDLGR	< -0.25
DRA	< -0.25
GVFAEAGPQGRPVTILLWSF	< -0.25
RKRTRSRHTTTGRSNGTQGR	< -0.25
QADFSQAPGVGG	< -0.25
RVIESA	< -0.25
GASRVP	< -0.25
YGVQLHGTRGASLRRHNL	< -0.25
RQGNILSFANVTSSK	< -0.25
PNVSGRVPGGKGRYIGQYSK	< -0.25
LLKTT	< -0.25
PRRAKVDMQHIMNLCCGPTH	< -0.25
IRRFQRASCFPTGSGYNESG	< -0.25
LLTRSTPDTRD	< -0.25
GVRADRLYVQKLIHS	< -0.25
PGAIRERWGCGHSHFRFWGA	-0.166
RAGESVVSELIAIKLTIPCP	< -0.25

At a glance, part of the list above:
Substance	growth estimate
PGAIRERWGCGHSHFRFWGA	-0.166
RAGESVVSELIAIKLTIPCP	< -0.25

Next results follow:

Substance	growth estimate
HPISGMG	< -0.25
PIPHGQKSVRKSVT	< -0.25
VVGSVVANRHYSVSSHNNKR	< -0.25
RDEPHSMGNGWCANCHLRQK	< -0.25
GHDAIALEALKSPVIRLNAC	< -0.25
LCTAWVKRSGSLYGVG	< -0.25
LVRSELTSCASVIERRNLLP	< -0.25
KKPRRRSHVIVFPGMEGIPA	-0.221
YMGQ	< -0.25
CQGRPSSVCMSWVAVQ	< -0.25
SRSEWTKNLPLPCVVKVTSA	< -0.25
SLKVRGRGRLRETFSLGAGT	< -0.25
FKKTPDYLQTGMVQSLLFKG	< -0.25
IRNTGRLNDTMQLRSRVGPP	< -0.25
GGGRSEFFASWGSDKRTLSK	< -0.25
RCSCGTRWSISLTSDPPQYL	< -0.25
VIRPSS	< -0.25
SYTTTLDPSVLIERQQPRFY	< -0.25
RHQTKRRTTKACHLQWTWG	< -0.25
TGELGGQVVLWRGGSPTAIY	< -0.25
PILAQDWEDQIQVMM	< -0.25
SVKLHESFRGQGDMRPPG	< -0.25
ALFMEMS	< -0.25
RVRDLRLLGD	< -0.25
PVLAPVPHQVVRAQAHGRTA	< -0.25

Substance	growth estimate
ITFGIGR	-0.231
VRMIGLLSRARTRTPFSSPK	-0.245
RLHNVGIAVHIRDTNRASVL	< -0.25
FGGTTSF	< -0.25
RPDASSEGSEVHHNTFTSRA	< -0.25
AKGTPIDWVVPSCDHEPPEN	< -0.25
NSFGRAI	< -0.25
IECLRRAQRSQDLQRVLGCF	< -0.25
ERESLQLRYIRARRTPVVAL	< -0.25
TFALLNGIQQGAWVHLYLCL	< -0.25
TRLNVKECCLPMQYWATKLR	< -0.25
HHMVKSISGESPSV	< -0.25
DRACLVRGHCPVNIRLGAVS	< -0.25
LGSKGRTTRMKCHPPRTITE	< -0.25
PIKYPFWPVT	< -0.25
DGTS	< -0.25
RFVTSHRRVCDGQGLRIQTP	< -0.25
SDYASRDISSNFENREILAA	< -0.25
FFSVMVRVD	< -0.25
DLETIDGTDDAQAVPCLRWS	< -0.25
TLETLPLYITEIFAWLKAIH	< -0.25
TVKMRLNTMSRAETGMRASL	< -0.25
CHVSVHHVNLGTGGGCSMRQ	< -0.25
YSLKICNSGSLAFA	< -0.25
LFPPVGRSQDTAERYLNSAR	< -0.25

Substance	growth estimate
EGIFGKSRAERTG	< -0.25
DRFRLPIGFEGP	< -0.25
LQLCILMGLKSAIAGDCNRP	< -0.25
CLTQPTRAYVDILNVADSQH	< -0.25
QIDVSQRVLGRDRQRTLFCA	< -0.25
PDRTGLRQESDLVCPSLPKA	< -0.25
QVTAKTALLLRIRLREAFSD	< -0.25
GRVIQHKIAGRMHAYLLTSV	< -0.25
FGVRCGLAMPIVRPGDALAY	-0.246
STREIISVRTIPTNTVPSDG	-0.185
LEFSKAKAARGLTSDCAT	< -0.25
FKPPLVPHIRI	< -0.25
KFSLVGSPGAGQVRGASLVR	< -0.25
WRRWISDSPTSPRRTR	< -0.25
VLDPEI	< -0.25
FPSLEVRLENVQLCRCASYP	< -0.25
VRLHRFDNS	< -0.25
RFPQRMLWRVRPLPGTVTLA	< -0.25
LRY	< -0.25
ESCPPLGVDHGLMFDLLVGG	< -0.25
QQSVRREAPLC	< -0.25
QSRVANR	< -0.25
DIEFGGQSPEMGLD	-0.0912
GYW	< -0.25
GVRALFSAGVSSAIVDRPSS	< -0.25

Substance	growth estimate
LHGSVATSEARSSLLACVAK	< -0.25
RRSCMAVVKMAKYGSKRQYR	< -0.25
LIDGRCRAYNRVRANHGRPY	< -0.25
AVGRGTKGA	-0.243
CPVEARLHQISRWAAEQTTI	< -0.25
VTAVRRADFSCESAVVSKRW	< -0.25
TVTARGGRSGRPGSELPWTR	< -0.25
WMHRSLCTCITTNFVRTLSE	< -0.25
CGSSSRTESKGLNYLTQPSL	< -0.25
DCVG	< -0.25
GCVTLGRQQRRRTLVSLQAV	< -0.25
TRRLRQRGSLFVFAKNGKNA	< -0.25
LRRFSGDSAQSWIA	< -0.25
AYLMGRSETPGWPQTTVPQT	< -0.25
VCVVSRIELSVHGAIRDM	< -0.25
SWALCFL	< -0.25
CNTLVSDRLSRTH	< -0.25
ISGGGRDLSGPSL	< -0.25
GYGYLSGRPPLEQIL	< -0.25
HLYLLECVLPRPSGMA	< -0.25
VMVGRERMVR	< -0.25
GGVSFVKQSTFPLKHCWDVG	< -0.25
VTKATTRITLCWTVAIPSTR	< -0.25
GDQREPFPWICLSTVRLFAL	< -0.25
SPAKCAGVG	< -0.25

Substance	growth estimate
DGF	< -0.25
RRSSVVMKGTVQTDQPPCYD	< -0.25
SSKNA	< -0.25
DHVWPTGVRGS	< -0.25
IVCI	< -0.25
VDLRVPAVPGAKRCGVMIDL	< -0.25
KFSVSIV	< -0.25
CIRLELIKSGRRRIYSR	< -0.25
SRHTYPKVVQDP	< -0.25
CQVDEEKSSVQ	< -0.25
VQHWVRTTGFLTNRRVC	< -0.25
VCLRRFWQHH	< -0.25
CGN	< -0.25
YPILAEG	< -0.25
VRVQA	-0.245
PMLPHMRSALPGKARAQGRT	< -0.25
IFTSAMRIIRTS	< -0.25
GRGGV	< -0.25
LSSIVNGLVPTQVSGYG	< -0.25
DYESRGFSRQ	< -0.25
PVSM	-0.208
